Results from the supplement of paper PMC4635364.
Counter-ions that a name gives are not always drawn. Some of the results follow. Repeats in this data set agree poorly, so a single value says little.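 Human fetal ventral-midbrain neural progenitor line ReNCell VM, differentiated without mitogens. Images stained for doublecortin (early neurons) or tyrosine hydroxylase (dopaminergic neurons) were scored by blinded raters against untreated wells (0 = no change). Repeats and both raters were averaged, and compounds averaging 2 or higher were picked as hits for retesting.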

Each compound was assayed on ReNCell VM (assay: dopaminergic neuron differentiation score (TH+ cell fraction vs untreated, manual image score) (score (0 to 3)); higher = more TH+ dopaminergic neuron differentiation). Details: library: Phytochemical; 2 uM; 4 weeks; BDNF 10 ng/ml + GDNF 10 ng/ml.

Row | SMILES | dopaminergic neuron differentiation score
1 | NCCC(O)C(=O)NC1CC(N)C(OC2OC(CN)C(O)[C@H](O)[C@@H]2N)[C@H](OC2O[C@H](CO)[C@@H](O)[C@@H]2O)[C@@H]1O (stereo not given in full) [Butirosin disulfate salt] | inactive: 0
2 | CN(C)C(=O)Oc1ccc[n+](C)c1 [Pyridostigmine bromide] | inactive: 0
3 | CC[C@@]1([C@@H]2O[C@@H]([C@H]3O[C@@](O)(CO)[C@H](C)C[C@@H]3C)C[C@@H]2C)CC[C@H]([C@]2(C)CC[C@]3(C[C@H](O)[C@@H](C)[C@@H]([C@@H](C)[C@@H](OC)[C@H](C)C(=O)O)O3)O2)O1 [Monensin sodium salt] | inactive: 0
4 | C=C(C)[C@H]1Cc2c(ccc3c2O[C@@H]2COc4cc(OC)c(OC)cc4[C@@H]2C3=O)O1 [Rotenone] | inactive: 0
5 | CCCCc1ccc(C(=O)O)nc1 [Fusaric acid] | inactive: 0
6 | CNCC(O)c1ccc(O)cc1 (racemic) [(+,-)-Synephrine] | inactive: 0
7 | CN1[C@@H]2CC[C@H]1C[C@@H](OC(=O)C(CO)c1ccccc1)C2 (stereo not given in full) [Atropine sulfate monohydrate] | inactive: 0
8 | C[C@]12CC[C@H](O)C[C@H]1CC[C@@H]1[C@@H]2C[C@@H](O)[C@]2(C)[C@@H](C3=CC(=O)OC3)CC[C@]12O [Digoxigenin] | inactive: 0
9 | C[C@]12CC[C@H](O)C[C@H]1CC[C@@H]1[C@@H]2CC[C@]2(C)[C@@H](C3=CC(=O)OC3)CC[C@]12O [Digitoxigenin] | inactive: 0
10 | CC[C@@]1(O)C(=O)OCc2c1cc1n(c2=O)Cc2cc3ccccc3nc2-1 [Camptothecine (S,+)] | inactive: 0

Given with tabs: two of the compounds above.
Row	SMILES	dopaminergic neuron differentiation score
2	CN(C)C(=O)Oc1ccc[n+](C)c1 [Pyridostigmine bromide]	inactive: 0
5	CCCCc1ccc(C(=O)O)nc1 [Fusaric acid]	inactive: 0
